US11559526B2, “Drug effective for lymphogenous drug administrating method” (TOHOKU UNIVERSITY, priority 2016, dated 2023)
Structures can show the parent of a compound that is named as a salt. Some entries share one result that the patent states for a list of compounds.

Tested on: KM-Luc/GFP cells
Assay: Anticancer activity after administration into the accessory axillary lymph node, mouse model of proper axillary lymph node metastasis (KM-Luc/GFP), luciferase imaging
Format: in vivo
Conditions: dose of less than 1 μg/g
Protocol: As a mouse model of lymphadenopathy, MXH10/Mo/lpr/lpr (MXH10/Mo/lpr) mice were prepared in accordance with the method previously reported (J Immunol Methods 2013; 389 (1-2): 69-78 doi 10.1016/j.jim.2013.01.004). In the following Examples, in total, 5 male and female model mice aged 15 to 18 weeks were used.
Mouse fibroblast-derived KM-Luc/GFP cells were prepared in accordance with the method previously reported (PLoS One 2013; 8 (2): e55797 doi 10.1371/journal.pone.0055797). The KM-Luc/GFP cells were obtained by transfecting MRL/MpTn-gld/gld mouse fibroblast-derived cancer cells, MRL/N1 cells, with pEGFPLuc plasmid. The KM-Luc/GFP cells constantly express a luciferase gene and a green fluorescent gene. […]
Using a biological fluorescence imaging system (IVIS manufactured by Caliper Life Science), the growth rates of cancer cells in the subiliac lymph node and proper axillary lymph node were determined on day 0, day 6 and day 9 after inoculation of the cancer cells. […] Ten minutes later, luciferase activity was determined using the IVIS. […]
The luciferase activities on day 6 and day 9 were normalized in accordance with the following [Expression 1]. Thereafter, the ratio of the normalized luciferase activity on day 9 to that on day 6 was calculated in accordance with the following [Expression 2]. […]

SMILES	tumor reduction ratio [%]
CCc1c2c(nc3ccc(OC(=O)N4CCC(N5CCCCC5)CC4)cc13)-c1cc3c(c(=O)n1C2)COC(=O)[C@]3(O)CC [CPT-11, irinotecan hydrochloride]	≥ 90
O=c1[nH]cc(F)c(=O)[nH]1 [5-FU, 5-fluorouracil]	≥ 90
